Measurements from patent EP0541662B1 (A. MENARINI INDUSTRIE FARMACEUTICHE RIUNITE S.R.L., priority 1990, dated 1992).
Strings that start with PEPTIDE1 are HELM notation: dots part the residues, brackets hold end groups and non-standard residues. The same purity stands for every peptide and may come from a single statement.

Key:
[1] = Fmoc solid-phase peptide synthesis; DOD resin; DCC, HOBt, BOP; conditions: whole synthesis, UV 210 nm, scale 0.50 mmol
[2] = general procedure: peptide synthesis; PAM resin; DCC, HOBt, BOP; conditions: whole synthesis, UV 210 nm
[3] = general procedure: peptide synthesis; MBHA resin; DCC, HOBt, BOP; conditions: whole synthesis, scale 0.45 mmol

PEPTIDE1{D.Y.[dW].V.[dW].[dW].K.[am]}$$$$V2.0
final HPLC purity [1]: ≧ 99%

PEPTIDE1{D.Y.[dW].V.[dW].[dW].R}$PEPTIDE1,PEPTIDE1,1:R1-7:R2$$$V2.0
final HPLC purity [2]: ≧ 99%

PEPTIDE1{D.Y.[dW].V.[dW].[dW].A.[am]}$$$$V2.0
final HPLC purity ([3]; UV 210 nm): ≧ 99% | crude mass [3]: 0.250 g
